Results: PubChem BioAssay AID1487 (National Center for Advancing Translational Sciences (NCATS), 2009)
About 25 (0.01%) of roughly 200,000 compounds were called active. The shares of active, inactive and inconclusive entries below differ from those in the screen. Calls follow the shape of the dose curve; as a rule, active = well fitted inhibition curve with a large enough effect in the signal ratio, with a control signal flat (not every such curve was filed as active); inconclusive = small, poorly fitted or top-dose-only effect, or effect the other way, or a change in a side signal; inactive = flat fitted curve, though single readings scatter; the % refers to the signal ratio. Where the call is inconclusive, the potency comes from a doubtful curve fit.

Assay: qHTS Assay for Modulators of Lamin A Splicing
Conditions: HeLa LMNA splicing GFP/RFP minigene ratio, 48 h; ratio change, negative = inhibition: at 46.1 µM (top of the series) unless noted
Method in brief: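 Read-out is the ratio of GFP to DsRed2 object intensity, acquired by 488 nm laser-scanning cytometry on HeLa lamin A-EGFP minigene reporter cells. Compound incubation 48 hrs at 37 °C in Opti-MEM with 2% FBS; DMSO 0.5% final.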
% is scaled to controls: 0 for no effect and ±100 for the full control effect; potency is read from the fitted curve at half-maximal effect.

| SMILES | ratio change, negative = inhibition | Potency |
| --- | --- | --- |
| Cc1nn2c(=O)cc(COC(=O)c3ccc(NC(=O)COc4ccc(Cl)cc4)cc3)nc2s1 | inconclusive: -4.58% [at 46 µM] | – |
| COc1ccc(C)cc1NC(=O)C(=O)NCCc1csc2nc(-c3ccccc3F)nn12 | inactive | – |
| O=C1CN(S(=O)(=O)c2ccc(Cl)cc2)CC(=O)N1CCc1ccccc1 | inactive | – |
| CCCCOC(=O)Nc1ccc(N2CCCCC2)cc1 | inactive | – |
| COC(=O)CCCSc1nccn1-c1ccccc1 | inactive | – |
| CCc1ccc(-c2cc(C(=O)Nc3ccc(S(=O)(=O)NC(C)=O)cc3)c3ccccc3n2)cc1 | inconclusive: 34.6% | – |
| C=CCn1c2ccccc2c2nnc(SCC(=O)Nc3c(C)n(C)n(-c4ccccc4)c3=O)nc21 | inconclusive: 7.79% | – |
| CCC(=O)Nc1ccc2c(c1)C(=O)N(C)C2=O | inactive | – |
| COc1ccc(C(=O)N2CCc3ccccc32)cc1 | inactive | – |
| CCOc1ccc(Oc2ccc(S(=O)(=O)N3CCOCC3)cc2N)cc1 | inconclusive: -43.4% [at 46 µM] | – |
| CCCC(=O)C1=C(c2ccc(C)cc2)N(C(=O)CCC)n2cnnc2S1 | inconclusive: -31.7% [at 46 µM] | – |
| O=C(NC(=S)Nc1cc([N+](=O)[O-])ccc1Cl)c1ccccc1 | inconclusive: 8.41% | – |
| O=C(NCC1CCCO1)c1ccc(Oc2ccc([N+](=O)[O-])cc2)cc1 (configuration not stated) | inconclusive: -29.7% [at 46 µM] | – |
| Cc1ccc(NC(=O)c2cnc(N3CCCCC3)c3ccccc23)cc1Cl | inconclusive: -18.1% [at 46 µM] | – |
| CCOC(=O)c1ccc(NC2c3ccccc3C(=O)N2c2ccccn2)cc1 (configuration not stated) | inconclusive: 31% | – |
| CCc1cccc(CC)c1NC(=S)NCCc1ccc(O)c(O)c1 | inconclusive: -17.6% [at 46 µM] | – |
| Cc1n[nH]c(C)c1CCc1nc2c3ccccc3nc(SCC(=O)Nc3ccc(F)cc3)n2n1 | – | inconclusive: 22.4 µM [cytotoxic, single point] |
| O=C(/C=C/c1ccccc1)CC(O)(c1ccccc1)C(F)(F)C(F)F (configuration not stated) | – | inconclusive: 35.5 µM [cytotoxic, single point] |
| Cc1ccccc1CSc1nnc(NC(=O)C2COc3ccccc3O2)s1 (configuration not stated) | inconclusive: -29.9% | – |
| CN(C)c1ccc(CNC(=O)C2CCCN(S(=O)(=O)c3ccc4c(ccn4C)c3)C2)cc1 (configuration not stated) | inconclusive: -42% [at 46 µM] | – |
| COc1ccc(Cl)cc1NC(=O)C(C)N1CCc2ccccc21 (configuration not stated) | inconclusive: 20.9% [at 9.22 µM] | – |

Molecules above containing nitrogen in an aromatic ring (eleven):

| SMILES | ratio change, negative = inhibition | Potency |
| --- | --- | --- |
| Cc1nn2c(=O)cc(COC(=O)c3ccc(NC(=O)COc4ccc(Cl)cc4)cc3)nc2s1 | inconclusive: -4.58% [at 46 µM] | – |
| COc1ccc(C)cc1NC(=O)C(=O)NCCc1csc2nc(-c3ccccc3F)nn12 | inactive | – |
| COC(=O)CCCSc1nccn1-c1ccccc1 | inactive | – |
| CCc1ccc(-c2cc(C(=O)Nc3ccc(S(=O)(=O)NC(C)=O)cc3)c3ccccc3n2)cc1 | inconclusive: 34.6% | – |
| C=CCn1c2ccccc2c2nnc(SCC(=O)Nc3c(C)n(C)n(-c4ccccc4)c3=O)nc21 | inconclusive: 7.79% | – |
| CCCC(=O)C1=C(c2ccc(C)cc2)N(C(=O)CCC)n2cnnc2S1 | inconclusive: -31.7% [at 46 µM] | – |
| Cc1ccc(NC(=O)c2cnc(N3CCCCC3)c3ccccc23)cc1Cl | inconclusive: -18.1% [at 46 µM] | – |
| CCOC(=O)c1ccc(NC2c3ccccc3C(=O)N2c2ccccn2)cc1 (configuration not stated) | inconclusive: 31% | – |
| Cc1n[nH]c(C)c1CCc1nc2c3ccccc3nc(SCC(=O)Nc3ccc(F)cc3)n2n1 | – | inconclusive: 22.4 µM [cytotoxic, single point] |
| Cc1ccccc1CSc1nnc(NC(=O)C2COc3ccccc3O2)s1 (configuration not stated) | inconclusive: -29.9% | – |
| CN(C)c1ccc(CNC(=O)C2CCCN(S(=O)(=O)c3ccc4c(ccn4C)c3)C2)cc1 (configuration not stated) | inconclusive: -42% [at 46 µM] | – |

The listing continues.

| SMILES | ratio change, negative = inhibition | Potency |
| --- | --- | --- |
| COC(=O)C1=C(C)NC(=O)C1(NC(=O)c1ccc(Cl)cc1)C(F)(F)F (configuration not stated) | inactive | – |
| Cc1csc(NC(=O)CSc2ncnc3c2cnn3-c2ccccc2Cl)n1 | inconclusive: -32.4% | – |
| CCN(CC)S(=O)(=O)c1ccc(NC(=O)c2cc(C(=O)OC)cc([N+](=O)[O-])c2)cc1 | inactive | – |
| O=C(NCc1ccco1)C(=O)NCC1OCCN1S(=O)(=O)c1ccc(Cl)cc1 (configuration not stated) | inconclusive: 7.28% | – |
| CC(=O)c1sc(NC(=O)C(C)(C)C)nc1C | inactive | – |
| Cc1c(Cl)cccc1NC(=S)N1CCC(C(N)=O)(N2CCCCC2)CC1 | inconclusive: -19.3% | – |
| Cc1ccc(-n2nnnc2SCC(=O)N(CC(C)C)c2c(N)n(CC(C)C)c(=O)[nH]c2=O)cc1 | inconclusive: -2.95% [at 46 µM] | – |
| CC(=O)N(CN1C(=O)c2ccccc2C1=O)c1ccccc1 | inactive | – |
| CCCc1nnc(SCc2ccc(C(=O)OC)o2)n1N | inactive | – |
| COc1cccc(NC(=O)CSc2nc(=O)n(Cc3ccccn3)c3c2CCC3)c1 | inconclusive: -26.4% [at 46 µM] | – |
| Cc1c(O)c2c3c(cccc3c1O)C(=O)N(c1ccccc1)C2=O | – | inconclusive: 35.5 µM [falling, single point] |
| CC1CCCCN1C(=O)COC(=O)/C=C/c1ccc2ccccc2n1 (configuration not stated) | inconclusive: -28.4% [at 46 µM] | – |
| COc1ccc(NC(=S)NCCN2CCOCC2)cc1 | inactive | – |
| Cc1ccc(S(=O)(=O)NCCC(C)C)cc1[N+](=O)[O-] | inconclusive: -0.715% | – |
| COc1ccc(C(C2C(=O)CC(C)(C)CC2=O)C2C(=O)CC(C)(C)CC2=O)cc1COCC(F)(F)F | inconclusive: -9.16% | – |
| CCOC(=O)c1[nH]c(C)c(CCC(=O)Nc2cccc(C(F)(F)F)c2)c1C | inconclusive: 16.9% [at 46 µM] | – |
| FC(F)(F)c1ccccc1NC(=S)N1CCc2ccccc2C1 | inconclusive: -33.9% [at 46 µM] | – |
| CC(/C=N\NC(=O)Cn1c(C)nc2ccccc21)=C\c1ccccc1 | – | inconclusive: 35.5 µM [cytotoxic, single point] |
| CCOC(=O)c1cc(-c2ccccc2)n(CCC(=O)NCCc2ccc(C)cc2)c1C | inactive | – |
| Cc1ccc(C2CC(c3ccccc3)=NN2C(=O)CSc2nnc(-c3ccncc3)n2C)o1 (configuration not stated) | inconclusive: 3.35% | – |
| Cc1cc2c(n1-c1ccc(Br)cc1)CC(C)(C)CC2=O | inconclusive: 31.5% | – |

Reformatted as tab-separated lines: part of the list above
SMILES	ratio change, negative = inhibition	Potency
Cc1c(Cl)cccc1NC(=S)N1CCC(C(N)=O)(N2CCCCC2)CC1	inconclusive: -19.3%	–
FC(F)(F)c1ccccc1NC(=S)N1CCc2ccccc2C1	inconclusive: -33.9% [at 46 µM]	–

Additional compounds.

| SMILES | ratio change, negative = inhibition | Potency |
| --- | --- | --- |
| Cc1ccc(C(=O)N2CCN(c3ncnc4c(C)csc34)CC2)cc1 | inconclusive: -4.22% [at 46 µM] | – |
| N[C@H](C(=O)N[C@@H]1C(=O)N2C(C(=O)O)=C(Cl)CS[C@@H]12)c1ccccc1 | inconclusive: -9.99% | – |
| CCOc1ccc(NC(=O)CN2C(=O)c3ccccc3Sc3ccc(C(=O)OC)cc32)cc1 | inactive | – |
| CC(=O)NCCNc1ncnc2ccc(-c3ccccc3C)cc12 | inconclusive: -8.06% | – |
| Fc1ccc(-n2c(-c3ccc4ccccc4n3)n[nH]c2=S)cc1 | inconclusive: 6.47% [at 46 µM] | – |
| Cc1ccc(S(=O)(=O)N2CCCN(S(=O)(=O)c3ccc4c(c3)OCCO4)CC2)cc1 | – | inconclusive: 15.8 µM [falling, single point] |
| Cc1nc(-c2cccc(NS(=O)(=O)c3ccccc3)c2)cs1 | inactive | – |
| Cc1nnc(NC(=O)CSc2ccc(-c3ccc(Cl)cc3)nn2)s1 | inconclusive: 28.3% [at 46 µM] | – |
| O=C(Nc1ccc(C(=O)N2CCOCC2)cc1)c1cc(-c2cccnc2)nc2ccc(Br)cc12 | inconclusive: -21.3% [at 46 µM] | – |
| CO/N=C/c1ccc(Sc2ccccc2)c([N+](=O)[O-])c1 | inconclusive: 24.1% | – |
| CSc1nc(C)c2cc(C)oc2n1 | inactive | – |
| CCCCOC(=O)/C(=C/c1cn(C)c2ccccc12)NC(=O)c1ccc(OC)cc1 | inactive | – |
| O=C(CCS(=O)(=O)c1ccc(Br)s1)NCc1ccccc1 | inactive | – |
| CCOc1ccc(CNC(=O)c2cc3cc(S(=O)(=O)N4CCCCC4)ccc3n2C)cc1 | inconclusive: -4.3% [at 46 µM] | – |
| Cc1cnc(NC(=O)CSc2ncc(-c3ccccc3)n2Cc2ccco2)s1 | – | inconclusive: 35.5 µM [falling, single point] |
| O=C(c1ccco1)c1coc2c1cc(O)c1ccccc12 | inconclusive: -16.2% [at 46 µM] | – |
| O=C(Nc1ccc(F)c(F)c1)C(c1ccccc1)N1Cc2ccccc2C1=O (configuration not stated) | inactive | – |
| CCOC(=O)NC(=O)C(/C=N/c1sccc1C(=O)OC)=C(\C)O | inactive | – |
| COc1ccccc1OCC(=O)NCCS(=O)(=O)N1CCN(c2ccccc2OC)CC1 | inactive | – |
| CCOC(=O)c1ccc(NC(=O)Cn2cccc2)cc1 | inconclusive: 2.48% | – |
| COc1cc(OC)cc(C(=O)Nc2nc3ccc(S(C)(=O)=O)cc3s2)c1 | inconclusive: -23.3% [at 46 µM] | – |

| SMILES | ratio change, negative = inhibition | Potency |
| --- | --- | --- |
| O=C(NCc1ccco1)/C(=C/C=C/c1ccccc1)NC(=O)c1ccco1 | inactive | – |
| COc1ccc(/C=N/OCC(=O)N2CCCC2)c(OC)c1 | inconclusive: 27.2% [at 46 µM] | – |
| CCCOc1ccc(C(=O)NNC(=S)NC(=O)c2cc(-c3ccccc3)nc3ccccc23)cc1 | inconclusive: 7.77% | – |
| Cc1nc2c(sc3nc4c(cc32)COC(C)(C)C4)c(=O)o1 | inactive | – |
| CC(=O)Nc1ccc(/C(C)=N/Nc2nc(Nc3cccc4ccccc34)nc(N3CCOCC3)n2)cc1 | – | inconclusive: 10 µM [falling, partial curve] |
| COc1ccc(-c2onc(C)c2-c2ccc(C(=O)OC(C)C)o2)c(O)c1 | inconclusive: -33.1% [at 46 µM] | – |
| O=C(NC(=S)NC1CCSC1=O)c1ccccc1Cl (configuration not stated) | inconclusive: 220% | – |
| Cc1cc(S(=O)(=O)NC(C)C)ccc1OCC(=O)NCc1ccccc1 | inconclusive: -8.53% [at 46 µM] | – |
| Cc1cc2c(OCC(O)CN3CCCC3)cccc2[nH]1 (configuration not stated) | inconclusive: 6.59% [at 46 µM] | – |
| CC(C)NC(=O)N(O)C1N(Cc2ccc3c(c2)OCO3)C(=S)SC1(C)C (configuration not stated) | inconclusive: 0.858% | – |
| C/C(=N\NC(=S)NC(C)C)c1ccccc1OC(F)F | inconclusive: 91.1% [at 46 µM] | – |
| Cn1nnnc1SCCCNCc1cc(Br)ccc1OCc1ccccc1F | inconclusive: -6.89% [at 46 µM] | – |
| O=C(Oc1cccccc1=O)c1ccccc1 | inconclusive: 43.9% [at 46 µM] | – |
| COc1ccc(-n2c(CNC(=O)c3cccs3)n[nH]c2=S)cc1 | inconclusive: -1.66% [at 46 µM] | – |
| Fc1cccc(NC(=S)NCCc2ccccc2)c1 | – | inconclusive: 35.5 µM [falling, single point] |
| Cc1cccc(C)c1NC(=O)CCCn1c(=O)c2cccn2c2ccccc21 | inconclusive: -20.7% [at 46 µM] | – |
| O=Cc1sc(Nc2ccccc2)nc1Cl | – | inconclusive: 15.8 µM [inhibitor, single point] |
| O=C(COc1ccc(Br)cc1)N1CCN(S(=O)(=O)/C=C/c2ccccc2)CC1 | – | inconclusive: 35.5 µM [fluorescent, single point] |
| COc1ccc(/C=C(\C#N)c2nc3ccc(C)cc3[nH]2)cc1Oc1ccc(C(F)(F)F)cc1[N+](=O)[O-] | inactive | – |
